Measurements reported in PubChem BioAssay AID1671195 (Yale University, 2021).
The deposit covers about 22,000 reagents; shown is a part drawn at random. About 1,510 of them (6.9%) were called active. 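Active includes knockdowns raising or lowering LDL uptake; positive z-scores mean more uptake, negative mean less.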 Entries without a mark were called inactive. Reagent sequences are not shown.

Screen: 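Knockdowns that increase or decrease uptake of fluorescent LDL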 (primary screen)
Cell system: human Huh7 hepatoma cells
Reagent: siRNA pool against human genes, 18 nM
Duration: about 2 to 2.5 days of knockdown, then 8 h LDL uptake
Treatment: DiI-labelled LDL at 30 µg/ml for 8 h, in lipoprotein-deficient serum medium
Read-out: 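Per-cell DiI-LDL intensity by automated imaging; well means scaled to the plate median and given as a robust z-score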
Reading the numbers: robust z-score: higher = more LDL uptake after knockdown
Hit rule: 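Active when two or more replicates show a robust z-score above 2 or below -2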

gene	PubChem SID	robust z-score, replicate 1	robust z-score, replicate 2	robust z-score, replicate 3
NOB1 (NIN1 (RPN12) binding protein 1 homolog)	SID442886710	0.987	1.28	0.979
SAMD7 (sterile alpha motif domain containing 7)	SID442888573	0.871	1.6	-0.381
DDIAS (DNA damage induced apoptosis suppressor)	SID442897994	-0.44	-0.592	-0.316
SMNDC1 (survival motor neuron domain containing 1)	SID442898049	-0.732	-0.306	-0.331
LOC401087 (retired record)	SID442896052	-0.0294	-0.362	-0.307
OR11H6 (olfactory receptor family 11 subfamily H member 6)	SID442889907	0.24	0.716	0.517
IGSF23 (immunoglobulin superfamily member 23)	SID442900585	-0.511	-1.18	-0.648
ISOC2 (isochorismatase domain containing 2)	SID442902380	-0.972	-1.26	-0.952
MYCBPAP (MYCBP associated protein)	SID442888186	0.105	1.19	1.01
LOC440298 (retired record)	SID442886597	1.14	1.35	0.855
TSSK4 (testis specific serine kinase 4)	SID442901555	-0.883	-1.12	-0.747
KLF8 (KLF transcription factor 8)	SID442902288	-1.24	-0.987	-0.905
LOC441109 (retired record)	SID442894975	0.172	-0.588	0.0577
TGM1 (transglutaminase 1)	SID442897940	-0.687	-0.467	-0.172
ZDHHC1 (zDHHC palmitoyltransferase 1)	SID442900209	-0.523	-0.201	-1.46
SEPTIN3 (septin 3)	SID442896801	0.156	-0.677	-0.421
AIFM1 (apoptosis inducing factor mitochondria associated 1)	SID442891331	0.209	0.00995	0.678
COMMD4 (COMM domain containing 4)	SID442899990	-0.455	-1.22	-0.417
LOC440613 (retired record)	SID442892317	0.0315	0.0398	0.477
MT1B (metallothionein 1B)	SID442900721	-0.433	-1.45	-0.51
UBE2D2 (ubiquitin conjugating enzyme E2 D2)	SID442890938	0.176	0.906	-0.0291
SH3KBP1 (SH3 domain containing kinase binding protein 1)	SID442884359	-2.23 (active)	-1.9	-1.87
RTN2 (reticulon 2)	SID442894999	0.455	-0.444	-0.376
TRIM25 (tripartite motif containing 25)	SID442897861	-0.272	-1.29	0.259
ANKRD55 (ankyrin repeat domain 55)	SID442887832	0.977	0.76	0.763
SLC39A6	SID442900473	-1.23	-0.255	-0.812
IGIP (IgA inducing protein)	SID442883166	3.9 (active)	4.74	4.22
RPL18AP4 (ribosomal protein L18a pseudogene 4)	SID442901608	-0.241	-0.759	-1.78
LOC390511 (retired record)	SID442887142	0.922	0.807	1.2
MED7 (mediator complex subunit 7)	SID442888933	-0.354	2.01	0.256
SUMO2 (small ubiquitin like modifier 2)	SID442896836	-0.373	0.145	-0.727
CFAP299 (cilia and flagella associated protein 299)	SID442887173	1.12	0.95	0.837
DYM (dymeclin)	SID442883167	4.5 (active)	4.23	4.13
SHARPIN (SHANK associated RH domain interactor)	SID442898869	-0.813	-0.763	-0.0692
NEUROD4 (neuronal differentiation 4)	SID442903596	-1.74	-1.71	-0.553
ZNF676 (zinc finger protein 676)	SID442883258	3.61 (active)	2.66	4.51
CCDC87 (coiled-coil domain containing 87)	SID442899446	-1.11	0.888	-1.65
CNTRL (centriolin)	SID442890214	0.437	0.601	0.306
TF (transferrin)	SID442891696	0.425	0.283	0.0537
LINC02609 (long independently transcribed non-coding RNA 2609)	SID442894710	-0.35	0.81	-0.737
ANKDD1A (ankyrin repeat and death domain containing 1A)	SID442897394	-0.12	-0.211	-0.812
EEF1AKMT3 (EEF1A lysine methyltransferase 3)	SID442891345	-0.00634	0.639	0.26
SLC26A11	SID442904104	-1.6	-1.4	-1.48
STK17A (serine/threonine kinase 17a)	SID442900233	-0.382	-1.53	-0.284
LINC00971 (long independently transcribed non-coding RNA 971)	SID442904415	-1.42	-1.85	-1.63
ALDH3B1 (aldehyde dehydrogenase 3 family member B1)	SID442898989	-0.517	-0.758	-0.416
LOC440175 (retired record)	SID442900310	-0.665	-0.738	-0.83
B3GAT2 (beta-1,3-glucuronyltransferase 2)	SID442902831	-1.15	-0.909	-1.41
OXSR1 (oxidative stress responsive kinase 1)	SID442892804	-0.151	0.473	0.0428
PTGR1 (prostaglandin reductase 1)	SID442892921	0.0486	0.196	0.0862
FOCAD (focadhesin)	SID442890354	0.093	0.109	1.08
MAGEA8 (MAGE family member A8)	SID442886132	0.733	1.86	1.18
CCKBR (cholecystokinin B receptor)	SID442893532	0.27	-0.137	-0.016
VGLL2 (vestigial like family member 2)	SID442884791	1.78	1.91	1.99
XDH (xanthine dehydrogenase)	SID442892652	0.322	-0.481	0.581
PRECSIT	SID442893582	0.03	-0.182	0.251
CHCHD5 (coiled-coil-helix-coiled-coil-helix domain containing 5)	SID442895535	0.181	-0.398	-0.319
UNC5A (unc-5 netrin receptor A)	SID442891098	0.393	0.401	0.2
SLC6A2	SID442886840	1.09	1.35	0.715
ZNF551 (zinc finger protein 551)	SID442893332	-0.0416	0.203	0.0254
FAM110D (family with sequence similarity 110 member D)	SID442897352	-0.0702	-0.476	-0.585
CHD4 (chromodomain helicase DNA binding protein 4)	SID442887167	1.26	0.893	0.759
GGA1	SID442898300	-0.429	-0.656	-0.366
KCNK1 (potassium two pore domain channel subfamily K member 1)	SID442896797	-0.594	-0.411	0.0636
JADE1 (jade family PHD finger 1)	SID442888191	-0.0577	1.57	0.792
DLX3 (distal-less homeobox 3)	SID442904468	-1.57	-1.29	-2.1
CDC14A (cell division cycle 14A)	SID442884756	-1.98	-1.99	-1.86
OSER1 (oxidative stress responsive serine rich 1)	SID442894272	0.422	-0.519	-0.0378

Part of the list above, set out differently:
gene | PubChem SID | robust z-score, replicate 1 | robust z-score, replicate 2 | robust z-score, replicate 3
NEUROD4 (neuronal differentiation 4) | SID442903596 | -1.74 | -1.71 | -0.553
ZNF676 (zinc finger protein 676) | SID442883258 | 3.61 (active) | 2.66 | 4.51
CCDC87 (coiled-coil domain containing 87) | SID442899446 | -1.11 | 0.888 | -1.65
CNTRL (centriolin) | SID442890214 | 0.437 | 0.601 | 0.306
TF (transferrin) | SID442891696 | 0.425 | 0.283 | 0.0537
LINC02609 (long independently transcribed non-coding RNA 2609) | SID442894710 | -0.35 | 0.81 | -0.737
ANKDD1A (ankyrin repeat and death domain containing 1A) | SID442897394 | -0.12 | -0.211 | -0.812
EEF1AKMT3 (EEF1A lysine methyltransferase 3) | SID442891345 | -0.00634 | 0.639 | 0.26
SLC26A11 | SID442904104 | -1.6 | -1.4 | -1.48
STK17A (serine/threonine kinase 17a) | SID442900233 | -0.382 | -1.53 | -0.284
LINC00971 (long independently transcribed non-coding RNA 971) | SID442904415 | -1.42 | -1.85 | -1.63
